# Laboratory results reported in the supplement of paper PMC10849652.
# Sequences of proteins named here, by UniProt entry; tags and fusion partners are left off. A change or cut given only in a name is not applied to a line headed by its entry.
# UniProt Q9BZL6: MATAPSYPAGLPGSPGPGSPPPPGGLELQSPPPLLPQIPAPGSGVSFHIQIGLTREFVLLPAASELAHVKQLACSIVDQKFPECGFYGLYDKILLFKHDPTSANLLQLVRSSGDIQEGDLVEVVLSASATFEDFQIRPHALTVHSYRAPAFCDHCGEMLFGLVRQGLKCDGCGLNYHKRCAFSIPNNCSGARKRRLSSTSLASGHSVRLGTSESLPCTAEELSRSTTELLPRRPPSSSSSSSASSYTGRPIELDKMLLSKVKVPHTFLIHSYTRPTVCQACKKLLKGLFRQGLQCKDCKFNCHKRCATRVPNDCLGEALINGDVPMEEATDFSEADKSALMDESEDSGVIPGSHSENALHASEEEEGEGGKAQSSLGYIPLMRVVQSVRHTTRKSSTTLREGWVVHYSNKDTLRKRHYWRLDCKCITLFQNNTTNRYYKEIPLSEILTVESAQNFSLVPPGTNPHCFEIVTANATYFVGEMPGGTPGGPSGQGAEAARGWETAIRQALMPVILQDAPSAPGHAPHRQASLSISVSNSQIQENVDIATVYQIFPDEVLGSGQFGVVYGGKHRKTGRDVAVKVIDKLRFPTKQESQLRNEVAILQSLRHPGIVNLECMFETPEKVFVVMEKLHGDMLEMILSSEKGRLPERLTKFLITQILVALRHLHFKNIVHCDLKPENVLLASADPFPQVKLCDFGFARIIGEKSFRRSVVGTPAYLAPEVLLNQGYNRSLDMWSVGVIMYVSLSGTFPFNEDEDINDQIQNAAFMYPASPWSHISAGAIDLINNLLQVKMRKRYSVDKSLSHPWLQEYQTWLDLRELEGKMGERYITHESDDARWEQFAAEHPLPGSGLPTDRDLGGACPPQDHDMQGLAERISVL
# UniProt O94906: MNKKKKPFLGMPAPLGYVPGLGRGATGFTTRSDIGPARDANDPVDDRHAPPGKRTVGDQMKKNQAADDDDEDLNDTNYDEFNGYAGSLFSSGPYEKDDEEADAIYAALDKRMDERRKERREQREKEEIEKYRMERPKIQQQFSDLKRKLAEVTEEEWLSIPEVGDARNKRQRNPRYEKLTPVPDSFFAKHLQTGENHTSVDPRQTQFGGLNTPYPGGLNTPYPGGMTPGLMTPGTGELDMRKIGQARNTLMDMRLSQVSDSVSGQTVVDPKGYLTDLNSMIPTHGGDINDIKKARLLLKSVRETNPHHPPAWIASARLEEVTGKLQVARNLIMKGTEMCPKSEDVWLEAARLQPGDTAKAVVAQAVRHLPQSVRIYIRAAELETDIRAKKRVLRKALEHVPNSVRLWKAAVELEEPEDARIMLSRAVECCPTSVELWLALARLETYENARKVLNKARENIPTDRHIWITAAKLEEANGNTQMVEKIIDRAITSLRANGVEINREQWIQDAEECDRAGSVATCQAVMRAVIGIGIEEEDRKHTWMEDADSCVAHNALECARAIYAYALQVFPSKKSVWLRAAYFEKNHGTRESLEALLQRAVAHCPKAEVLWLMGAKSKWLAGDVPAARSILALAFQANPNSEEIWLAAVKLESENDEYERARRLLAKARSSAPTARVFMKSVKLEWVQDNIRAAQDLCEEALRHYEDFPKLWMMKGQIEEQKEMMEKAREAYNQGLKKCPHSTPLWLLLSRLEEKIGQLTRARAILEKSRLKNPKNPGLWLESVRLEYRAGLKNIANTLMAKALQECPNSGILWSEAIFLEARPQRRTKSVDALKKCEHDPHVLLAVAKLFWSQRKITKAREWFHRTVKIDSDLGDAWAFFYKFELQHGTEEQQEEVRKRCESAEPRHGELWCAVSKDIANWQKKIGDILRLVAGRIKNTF
# UniProt P62136, whole entry, looked up: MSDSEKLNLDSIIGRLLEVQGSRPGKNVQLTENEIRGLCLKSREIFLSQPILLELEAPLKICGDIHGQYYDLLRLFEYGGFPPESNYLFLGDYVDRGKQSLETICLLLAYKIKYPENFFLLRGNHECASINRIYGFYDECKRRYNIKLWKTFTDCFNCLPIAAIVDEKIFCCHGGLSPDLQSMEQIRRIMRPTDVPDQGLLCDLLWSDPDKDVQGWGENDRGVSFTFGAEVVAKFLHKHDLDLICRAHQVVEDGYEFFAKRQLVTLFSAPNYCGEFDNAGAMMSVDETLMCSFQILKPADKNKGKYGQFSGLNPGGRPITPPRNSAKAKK
# UniProt Q9UPN7: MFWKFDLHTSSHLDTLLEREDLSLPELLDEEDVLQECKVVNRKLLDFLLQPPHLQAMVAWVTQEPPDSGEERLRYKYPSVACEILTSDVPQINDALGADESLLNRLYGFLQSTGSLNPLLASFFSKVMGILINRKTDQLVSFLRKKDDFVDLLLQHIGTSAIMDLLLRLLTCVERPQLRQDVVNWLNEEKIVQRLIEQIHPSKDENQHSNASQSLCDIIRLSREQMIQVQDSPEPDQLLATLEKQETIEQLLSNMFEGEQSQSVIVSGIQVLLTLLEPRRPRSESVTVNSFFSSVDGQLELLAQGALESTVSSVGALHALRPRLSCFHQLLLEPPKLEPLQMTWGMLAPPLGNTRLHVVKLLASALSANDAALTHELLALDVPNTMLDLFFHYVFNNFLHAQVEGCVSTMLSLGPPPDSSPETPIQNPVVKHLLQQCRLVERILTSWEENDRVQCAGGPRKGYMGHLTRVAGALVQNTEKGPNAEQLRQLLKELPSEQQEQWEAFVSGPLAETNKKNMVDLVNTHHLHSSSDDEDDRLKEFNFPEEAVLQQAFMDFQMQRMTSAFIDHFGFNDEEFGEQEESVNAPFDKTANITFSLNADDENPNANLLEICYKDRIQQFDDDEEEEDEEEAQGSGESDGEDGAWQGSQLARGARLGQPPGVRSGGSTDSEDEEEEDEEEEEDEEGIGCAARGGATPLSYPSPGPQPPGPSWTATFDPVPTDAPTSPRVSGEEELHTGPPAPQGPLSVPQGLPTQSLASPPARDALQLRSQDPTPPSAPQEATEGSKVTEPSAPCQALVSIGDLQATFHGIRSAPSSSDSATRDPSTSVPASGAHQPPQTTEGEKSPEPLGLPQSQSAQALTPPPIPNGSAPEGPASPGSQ
# UniProt O43741: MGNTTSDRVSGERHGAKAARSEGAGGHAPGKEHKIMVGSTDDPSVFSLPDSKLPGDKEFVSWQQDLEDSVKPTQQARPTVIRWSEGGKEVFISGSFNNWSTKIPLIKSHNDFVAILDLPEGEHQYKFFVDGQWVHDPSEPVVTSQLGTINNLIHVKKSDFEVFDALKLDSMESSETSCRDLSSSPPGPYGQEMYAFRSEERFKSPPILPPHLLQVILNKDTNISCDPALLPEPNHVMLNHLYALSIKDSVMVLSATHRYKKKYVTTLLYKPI
# UniProt P30048: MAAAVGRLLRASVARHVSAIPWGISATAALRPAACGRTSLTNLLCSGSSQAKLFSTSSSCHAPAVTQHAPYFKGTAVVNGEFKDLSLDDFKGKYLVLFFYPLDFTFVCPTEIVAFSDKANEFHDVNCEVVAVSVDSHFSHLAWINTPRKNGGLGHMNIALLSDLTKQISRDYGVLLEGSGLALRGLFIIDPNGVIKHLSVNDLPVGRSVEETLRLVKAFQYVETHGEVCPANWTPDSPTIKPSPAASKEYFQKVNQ
# UniProt P10644, whole entry, looked up: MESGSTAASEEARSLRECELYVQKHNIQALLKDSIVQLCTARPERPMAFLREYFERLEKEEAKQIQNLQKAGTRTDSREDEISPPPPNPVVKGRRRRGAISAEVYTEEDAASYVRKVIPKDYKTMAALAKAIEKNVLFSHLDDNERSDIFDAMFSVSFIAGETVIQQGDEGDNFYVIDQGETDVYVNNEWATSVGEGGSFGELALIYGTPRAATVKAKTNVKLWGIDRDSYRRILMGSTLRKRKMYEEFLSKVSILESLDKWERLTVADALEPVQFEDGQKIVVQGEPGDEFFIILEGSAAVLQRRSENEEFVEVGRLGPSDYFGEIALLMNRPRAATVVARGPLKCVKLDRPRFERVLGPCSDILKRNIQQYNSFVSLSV
# UniProt P78395, whole entry, looked up: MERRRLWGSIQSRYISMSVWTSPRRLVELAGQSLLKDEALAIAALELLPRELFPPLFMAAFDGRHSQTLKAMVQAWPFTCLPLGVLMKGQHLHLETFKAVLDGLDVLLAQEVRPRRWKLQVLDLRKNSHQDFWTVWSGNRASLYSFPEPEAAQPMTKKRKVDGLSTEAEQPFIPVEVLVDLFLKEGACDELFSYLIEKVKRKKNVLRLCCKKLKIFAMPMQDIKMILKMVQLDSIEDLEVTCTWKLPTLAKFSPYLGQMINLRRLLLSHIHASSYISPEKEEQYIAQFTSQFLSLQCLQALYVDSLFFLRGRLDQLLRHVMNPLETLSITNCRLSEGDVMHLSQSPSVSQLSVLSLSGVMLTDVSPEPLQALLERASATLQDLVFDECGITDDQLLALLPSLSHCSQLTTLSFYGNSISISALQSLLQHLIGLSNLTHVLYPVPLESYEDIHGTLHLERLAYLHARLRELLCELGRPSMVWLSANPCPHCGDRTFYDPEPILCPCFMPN
# This is one part of the list. Residues, ends and D or L forms follow the SMILES beside them. *: point of attachment. Cbz = O=C(OCc1ccccc1)*
# How the values were obtained:
# Experiment in all cases: log2 fold change, soluble protein after heating vs DMSO (PISA); higher = thermal stabilisation; K562 cells, 10 uM, 30 min; active = over 0.2 and 3.5 SD of the protein, either way, in both replicates (recomputed)
# erlotinib = compound: C#Cc1cccc(Nc2ncnc3cc(OCCOC)c(OCCOC)cc23)c1 [erlotinib]
# How it was run: (§1)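 K562 cells (2×10^6 cells/mL) were treated with 10 μM compound for 30 min, and aliquots were heated for 3 min over 48°C-58°C. Pooled aliquots were extracted in PBS with 0.5% NP-40 at 4°C, and the supernatant after 21,000xg for 90 min was measured by TMTpro 16plex LC-MS/MS with channel sums equalised. Reported thermal stability, relative to control samples and from duplicates, is a log2 fold change.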
# [1] = compound: C/C(=N\NC(=O)C1=CC(=CC=C1)S(=O)(=O)N2CCOCC2)/C3=C(C=CC(=C3)Cl)O
# How it was run: as §1
# [2] = compound: C1=CC(=C(C=C1Cl)C2=NC3=NC=CN=C3C(=N2)NC4=CC=NC=C4)F
# How it was run: as §1
# [3] = compound: C1=CC(=CC=C1C2=NC3=C(N2)C=C(C=C3)C(=O)N)OC4=CC=C(C=C4)Cl
# How it was run: as §1
# [4] = compound: C1=CC2=C(C=CC(=C2)/C=C\3/C(=O)NC(=NCC4=CC=CS4)S3)N=C1
# How it was run: as §1
# [5] = compound: C1=CC2=NC=CN=C2C=C1/C=C/3\C(=O)NC(=O)S3
# How it was run: as §1
# [6] = compound: C1=CC=C(C=C1)C2=NC(=C(N2)C3=CC=NC=C3)C4=CC(=C(C=C4)Cl)O
# How it was run: as §1
# [7] = compound: C1=CC=C2C(=C1)C3=NNC4=CC=CC(=C43)C2=O
# How it was run: as §1
# [8] = compound: C1CCN(C1)C(=O)NC2=CC=CC(=C2)NC3=NC=C(C(=N3)NCCC4=CN=CN4)Br
# How it was run: as §1
# [9] = compound: C1CN(CCC1(CC2=CC=C(C=C2)Cl)N)C3=NC=NC4=C3C=CN4
# How it was run: as §1
# IRAK-1-4 Inhibitor I = compound: C1COCCN1CCN2C3=CC=CC=C3N=C2NC(=O)C4=CC(=CC=C4)[N+](=O)[O-] [IRAK-1-4 Inhibitor I]
# How it was run: as §1
# ibrutinib = compound: C=CC(=O)N1CCC[C@@H](n2nc(-c3ccc(Oc4ccccc4)cc3)c3c(N)ncnc32)C1 [ibrutinib]
# How it was run: as §1
# [10] = compound: CC(=O)c1cnc2ccc(-c3cc(Cl)c(O)c(Cl)c3)nc2c1N[C@H]1CC[C@H](CN(C)C)CC1
# How it was run: as §1
# ralimetinib = compound: CC(C)(C)Cn1c(N)nc2ccc(-c3[nH]c(C(C)(C)C)nc3-c3ccc(F)cc3)nc21 [ralimetinib]
# How it was run: as §1
# [11] = compound: CC(C)(O)CC(=O)NCCn1ccc2ncnc(Nc3ccc(Oc4cccc(C(F)(F)F)c4)c(Cl)c3)c21
# How it was run: as §1
# [12] = compound: CC(C)C1=C2N=C(C=C(N2N=C1)NCC3=CC=CC=C3)NCCCCCCN
# How it was run: as §1
# [13] = compound: CC(C)C[C@@H](C=O)NC(=O)[C@H](CC(C)C)NC(=O)[C@H](CC(C)C)NC(=O)OCc1ccccc1
# How it was run: as §1
# pinometostat = compound: CC(C)N(C[C@H]1O[C@@H](n2cnc3c(N)ncnc32)[C@H](O)[C@@H]1O)[C@H]1C[C@@H](CCc2nc3cc(C(C)(C)C)ccc3[nH]2)C1 [pinometostat]
# How it was run: as §1
# [14] = compound: CC1=C(C2=C(C=C1)C(=O)C3=CC=CC=C3N2CCCN)C
# How it was run: as §1
# [15] = compound: CC1=C(C(CC(=O)N1)C2=CC=C(C=C2)C(F)(F)F)C(=O)NC3=C(C=C4C(=C3)C=NN4)F
# How it was run: as §1
Target,log2 fold change (erlotinib),log2 fold change [1],log2 fold change [2],log2 fold change [3],log2 fold change [4],log2 fold change [5],log2 fold change [6],log2 fold change [7],log2 fold change [8],log2 fold change [9],log2 fold change (IRAK-1-4 Inhibitor I),log2 fold change (ibrutinib),log2 fold change [10],log2 fold change (ralimetinib),log2 fold change [11],log2 fold change [12],log2 fold change [13],log2 fold change (pinometostat),log2 fold change [14],log2 fold change [15]
PRKD2 isoform 3 (UniProt Q9BZL6),inactive: 0.04,inactive: 0.214,inactive: 0.022,inactive: 0.055,inactive: 0.003,inactive: 0.004,inactive: -0.126,inactive: -0.347,inactive: -0.04,inactive: -0.075,inactive: -0.046,inactive: -0.057,active: -1.03,inactive: 0.089,inactive: -0.302,inactive: -0.216,inactive: 0.074,inactive: 0.056,inactive: -0.087,–
PRPF6 (UniProt O94906),inactive: -0.122,inactive: 0.058,inactive: -0.228,inactive: 0.051,inactive: -0.072,inactive: -0.214,inactive: -0.049,inactive: -0.168,inactive: -0.025,inactive: -0.245,inactive: 0.199,inactive: 0.002,inactive: 0.044,inactive: 0.128,inactive: 0.125,inactive: -0.526,inactive: 0.134,inactive: -0.097,inactive: -0.055,–
PPP1CA (UniProt P62136),inactive: 0.026,inactive: -0.002,inactive: -0.015,inactive: -0.006,inactive: 0.036,inactive: -0.005,inactive: 0.001,inactive: -0.03,inactive: -0.004,inactive: 0.009,inactive: 0.041,inactive: -0.02,inactive: -0.018,inactive: -0.012,inactive: 0.007,inactive: 0.015,inactive: 0.009,inactive: -0.071,inactive: -0.007,–
PPP6R1 (UniProt Q9UPN7),inactive: -0.022,inactive: -0.017,inactive: 0.013,inactive: -0.004,inactive: 0.025,inactive: 0.012,inactive: -0.022,inactive: -0.039,inactive: -0.014,inactive: 0.033,inactive: 0,inactive: 0.009,inactive: 0.039,inactive: -0.01,inactive: -0.031,inactive: -0.077,inactive: 0.038,inactive: -0.047,inactive: -0.041,–
PRKAB2 (UniProt O43741),inactive: -0.054,inactive: 0.29,inactive: 0.103,inactive: 0.032,inactive: -0.022,inactive: -0.115,inactive: 0.203,inactive: 0.144,inactive: -0.218,inactive: 0.064,inactive: 0.003,inactive: 0.054,inactive: -0.115,inactive: 0.223,inactive: -0.117,inactive: -0.028,inactive: -0.175,inactive: -0.065,inactive: -0.053,–
PRDX3 (UniProt P30048),inactive: -0.062,inactive: -0.034,inactive: 0.02,inactive: -0.045,inactive: -0.006,inactive: 0.017,inactive: -0.056,inactive: 0.011,inactive: -0.019,inactive: -0.033,inactive: -0.001,inactive: 0.039,inactive: 0.02,inactive: -0.061,inactive: 0.06,inactive: 0.099,inactive: -0.003,inactive: -0.072,inactive: 0.025,inactive: -0.006
PRKAR1A (UniProt P10644),inactive: 0.078,inactive: -0.084,inactive: -0.037,inactive: -0.027,inactive: 0.116,inactive: 0.018,inactive: 0.066,inactive: 0.139,inactive: 0.128,inactive: -0.017,inactive: -0.068,inactive: 0.035,inactive: -0.049,inactive: 0.268,inactive: 0.041,inactive: -0.149,inactive: 0.041,inactive: 0.131,inactive: -0.127,–
PRAME (UniProt P78395),inactive: 0.047,inactive: -0.047,inactive: -0.226,inactive: 0.036,inactive: 0.003,inactive: 0.008,inactive: -0.039,inactive: -0.064,inactive: -0.061,inactive: -0.031,inactive: -0.019,inactive: -0.026,inactive: -0.038,inactive: 0.082,inactive: 0,inactive: -0.013,inactive: 0.231,inactive: 0.089,inactive: -0.084,inactive: 0
